Measured values as given in patent publication US20240391978A1, “APOLIPOPROTEIN FUSION PROTEINS FOR CELL-SPECIFIC IMMUNE REGULATION” (BIO-TRIP B.V., priority 2021, published 2024).
For at least one compound, name, drawing or mass did not settle the structure.

How the values were obtained:
primary human monocytes [1] = experiment: In vitro model of trained immunity in primary human monocytes; assay type: cell-based; settings: 1 hour pre-incubation with inhibitor (Table 2) before IL4 training
Description: In vitro model of trained immunity in primary human monocytes: To induce trained immunity in primary human monocytes, a previously optimized and published method was used (Dominguez-Andres, J. et al. In vitro induction of trained immunity in adherent human monocytes. STAR Protoc 2, 100365, doi:10.1016/j.xpro.2021.100365 (2021); van Lier, D., Geven, C., Leijte, G. P. & Pickkers, P. Experimental human endotoxemia as a model of systemic inflammation. Biochimie 159, 99-106, doi:10.1016/j.biochi.2018.06.014 (2019)). Briefly: monocytes were adhered to a flat-bottom cell culture plate for 1 hour and washed with warm PBS to remove any non-adherent cells and cell debris. Then, they were stimulated (“trained”) for 24 hours with one of the stimuli detailed in Table 1, or medium only (“untrained” control). […]
Following the initial 24-hour stimulation, the cells were washed with warm PBS and warm cell culture medium was added. […] On day 6, the induction of trained immunity was assessed. […]
Cytokine and lactate measurements: TNF, IL6, and IL1Ra were measured in cell culture supernatants using duoset ELISA kits (R&D systems), according to the manufacturer's instructions. […] Immediately thereafter, fluorescence was measured at 530/25 nm and 590/35 nm. […]

primary human monocytes [2] = experiment: In vitro inflammation inhibition, LPS-stimulated monocytes; assay type: cell-based; settings: 1 hour pre-incubation with inhibitor (Table 2), IL4 + LPS 24 h
Protocol: For pharmacological inhibition experiments, the monocytes were pre-incubated for 1 hour with one of the inhibitors described in Table 2 before addition of the training stimulus.
In vitro inflammation inhibition: Monocytes were adhered to a flat-bottom cell culture plate for 1 hour and washed with warm PBS to remove any non-adherent cells and cell debris. […] Following the initial 24-hour stimulation, the supernatants were collected and stored at −20° C. until further analysis with ELISA for IL6 and TNF.
Cytokine and lactate measurements: TNF, IL6, and IL1Ra were measured in cell culture supernatants using duoset ELISA kits (R&D systems), according to the manufacturer's instructions. For lactate measurements, a fluorometric assay was used. 30 μl sample, medium control, or known standard was added to a black 96-well plate. Then, 30 μl reaction mix (PBS pH 7.4, horse radish peroxidase (0.2 U/ml), lactate oxidase (2 U/ml), Amplex red (100 μM; Fisher scientific)) was added and the reaction was incubated for 20 minutes in the dark at RT. Immediately thereafter, fluorescence was measured at 530/25 nm and 590/35 nm. Gen5 software (v3.03, BioTek) was used in conjunction with Microsoft Excel to calculate cytokine and lactate concentrations in the original samples.

| Compound | effect of inhibitor on trained immunity induction by IL4 (TNF, IL6) (primary human monocytes [1]) | effect of inhibitor on IL4's inhibition of acute inflammation (TNF, IL6) (primary human monocytes [2]) |
| --- | --- | --- |
| CN1CCC(=C2c3ccccc3C=Cc3ccccc32)CC1 [cyproheptadine, Cyproheptadine] | abrogated the induction of trained immunity by IL4 | – |
| COC[C@H]1OC(=O)c2coc3c2[C@@]1(C)C1=C(C3=O)[C@@H]2CCC(=O)[C@@]2(C)C[C@H]1OC(C)=O [wortmannin, Wortmannin, reference compound] | diminished the trained immunity responses | did not abrogate the effect of IL4 on acute inflammation |
